Among the data in patent publication US9133271 (AbbVie / Abbott, dated 2015) are binding values, retold here.

Amino acid sequences for entries named in this document (tags omitted). A change or cut given only in a name is not applied to a line headed by its entry.
UniProt O88516: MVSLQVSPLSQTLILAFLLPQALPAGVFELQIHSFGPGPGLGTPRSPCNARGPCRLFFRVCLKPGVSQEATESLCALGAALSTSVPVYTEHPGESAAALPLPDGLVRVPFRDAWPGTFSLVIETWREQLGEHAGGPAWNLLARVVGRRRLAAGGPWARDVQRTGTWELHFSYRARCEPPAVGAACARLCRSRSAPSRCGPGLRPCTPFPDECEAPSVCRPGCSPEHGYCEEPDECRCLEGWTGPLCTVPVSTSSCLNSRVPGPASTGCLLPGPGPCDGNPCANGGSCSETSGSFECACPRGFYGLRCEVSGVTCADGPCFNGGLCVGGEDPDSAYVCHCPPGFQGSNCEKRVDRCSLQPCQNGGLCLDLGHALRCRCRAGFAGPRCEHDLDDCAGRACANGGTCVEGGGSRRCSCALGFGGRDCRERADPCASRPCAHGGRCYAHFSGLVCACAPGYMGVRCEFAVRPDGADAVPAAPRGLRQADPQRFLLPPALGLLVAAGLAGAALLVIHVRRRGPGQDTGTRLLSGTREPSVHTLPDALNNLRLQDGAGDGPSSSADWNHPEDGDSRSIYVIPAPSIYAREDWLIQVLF

No constants are given. Whether binding was seen depends on the method and setting. Some results given as binding are weak or reduced against the parent protein; the word gives no strength.

B1: hSC16.34 (antibody, V domains shown)
VH: QVQLVQSGAEVKKPGASVKVSCKASGYTFTNYGMNWVRQAPGQRLEWMGWINTYTGDPTYADDFKGRVTITRDTSASTAYMELSSLRSEDTAVYYCARIGGNSPSDYWGQGTTVTVSS
VL: DIQMTQSPSSLSASVGDRVTITCKASQSVSNDVAWYQQKPGKVPKLLIYYASNRYSGVPSRFSGSGSGTDFTLTISSLQPEDVATYFCQQDYSSPWTFGGGTKVEIK
B2: hSC16.56 (antibody, V domains shown)
VH: QVQLVQSGAEVKKPGASVKVSCKASGYTFTNYGMNWVRQAPGQGLEWMGWINTYTGEPTYADDFKGRVTMTTDTSTSTAYMELRSLRSDDTAVYYCARIGDSSPSDYWGQGTLVTVSS
VL: EIVMTQSPATLSVSPGERATLSCKASQSVSNDVVWYQQKPGQAPRLLIYYASNRYTGIPARFSGSGSGTEFTLTISSLQSEDFAVYYCQQDYTSPWTFGQGTKLEIKR
B3: hSC16.15 (antibody, V domains shown)
VH: QVQLVQSGAEVKKPGASVKVSCKASGYTFTRYWIHWIRQAPGQGLEWMGYINPTTVYTEFNQNFKDRVTMTRDTSTSTVYMELSSLRSEDTAVYYCARGGSNFFDYWGQGTTVTVSS
VL: AIQLTQSPSSLSASVGDRVTITCRASENIYYNLAWYQQKPGKAPKLLIYTANSLEDGVPSRFSGSGSGTDFTLTISSLQPEDFATYFCKQAYDVPPTFGGGTKLEIK

For this assay, the target named is murine DLL3 on 293 cells (h293-mDLL3) (murine) (UniProt O88516). Briefly: assay and form of the mouse antigen not given on the sheet; table of properties of humanized constructs.
With B1, the binding result is “binds”. For B2 the value was “binds”; for B3, “binds”.
